For at least one entry, the source does not settle the construct or the ends of the probe.
Biological target: phosphorylated RacR (RacR-P), N-His (UniProt O68795)
Assay: EMSA
Settings: 50 pmol RacR, 25 pmol RacScyto, 2 mM ATP; 20 mM Tris-HCl pH 7.4, 5 mM MgCl2, 100 mM KCl, 100 ug/ml BSA, 1 ug/ml poly(dI-dC), 10% glycerol; 30 min on ice; ~50 fmol DNA; 4% native Tris-glycine gel at 4 C; recombinant protein; protein details: N-His; probe letters rebuilt from the primers and the genome

| Sequence | binding result |
| --- | --- |
| TTGAAATCGCAAATATAGCTAAATAACGCATTTTACTCCTTTTTAATGATATATAGAATTATTGTAACAAAACTAGGGGTATTGATAAATTTAAAAAATGATATATTTTTATAAAAATATTTAAAATTTTAAAATTTTGTATCAAATATTCTCATTTTATATAATTATTTTTTTATAAAATTACAAAAAGTAACTTTTAAATTTTATACCAAACTTGAGATTTTTTTGCTAAAATATTTAAAATTTATTGAAAGTGCAATGCATGCTTT (double strand) [ggt promoter -204 fragment] | binds |
| TTGAAATCGCAAATATAGCTAAATAACGCATTTTACTCCTTTTTAATGATATATAGAATTATTGTAACAAAACTAGGGGTATTGATAAATTTAAAAAATGATATATTTTTATAAAAATATTTAAAATTTTAAAATTTTGTATCAAATATTCTCATTTTATGCATGCTTT (double strand) [ggt promoter -104 fragment] | binds |
